Assay results as given in publication PMC4741836.
Results are given in words; binding and its absence hold for the method and conditions named. In cells and extracts the contact can be indirect. Some entries that bind do so weakly or less than the wild type.

Amino acid sequences for entries named in this document (tags omitted).
UniProt Q15554: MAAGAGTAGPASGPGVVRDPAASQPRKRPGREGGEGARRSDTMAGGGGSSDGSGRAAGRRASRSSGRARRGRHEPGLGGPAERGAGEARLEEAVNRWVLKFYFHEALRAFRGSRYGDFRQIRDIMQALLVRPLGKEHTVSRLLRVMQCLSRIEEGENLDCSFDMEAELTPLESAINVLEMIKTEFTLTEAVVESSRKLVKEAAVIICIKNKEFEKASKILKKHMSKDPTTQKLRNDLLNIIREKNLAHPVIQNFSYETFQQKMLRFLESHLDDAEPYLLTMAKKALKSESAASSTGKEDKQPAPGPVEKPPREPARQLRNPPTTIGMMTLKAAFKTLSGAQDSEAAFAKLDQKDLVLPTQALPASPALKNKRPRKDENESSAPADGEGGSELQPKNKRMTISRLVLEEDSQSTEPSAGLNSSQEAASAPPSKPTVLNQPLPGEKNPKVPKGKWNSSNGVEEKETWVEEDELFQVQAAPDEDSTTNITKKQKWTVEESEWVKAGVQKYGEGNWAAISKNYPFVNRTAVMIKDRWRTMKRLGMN

Target: telomere repeat binding factor 2 (TRF2) (human) (UniProt Q15554)
Test: co-IP; unpublished observations; cells, antibodies and conditions not told

B1: heregulin isoform β2 (HRGβ2) (protein, UniProt Q02297-7 20-637)
chain: SGKKPESAAGSQSPALPPRLKEMKSQESAAGSKLVLRCETSSEYSSLRFKWFKNGNELNRKNKPQNIKIQKKPGKSELRINKASLADSGEYMCKVISKLGNDSASANITIVESNEIITGMPASTEGAYVSSESPIRISVSTEGANTSSSTSTSTTGTSHLVKCAEKEKTFCVNGGECFMVKDLSNPSRYLCKCPNEFTGDRCQNYVMASFYKAEELYQKRVLTITGICIALLVVGIMCVVAYCKTKKQRKKLHDRLRQSLRSERNNMMNIANGPHHPNPPPENVQLVNQYVSKNVISSEHIVEREAETSFSTSHYTSTAHHSTTVTQTPSHSWSNGHTESILSESHSVIVMSSVENSRHSSPTGGPRGRLNGTGGPRECNSFLRHARETPDSYRDSPHSERYVSAMTTPARMSPVDFHTPSSPKSPPSEMSPPVSSMTVSMPSMAVSPFMEEERPLLLVTPPRLREKKFDHHPQQFSSFHHNPAHDSNSLPASPLRIVEDEEYETTQEYEPAQEPVKKLANSRRAKRTKPNGHIANRLEVDSNTSSQSSNSESETEDERVGEDTPFLGIQNPLAASLEATPAFRLADSRTNPAGRFSTQEEIQARLSSVIANQDPIAV
- binding: binds
